PubChem BioAssay AID1508588 | Peter MacCallum Cancer Centre – 2020
This is a random part of about 18,000 deposited reagents. Over the whole deposit, 790 (4.4%) are marked active. 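Calls rest on a combination of fold-change classes in drug and vehicle arms, not all shown here.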

Screen: 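Knock-downs boosting vemurafenib effects on melanoma cell growth or lactate release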 (primary screen)
System: human WM266.4 melanoma cells (BRAF V600 mutant)
Reagents: siRNA pool against human genes, 40 nM
Duration: 96 h from transfection to read-out
Challenge: vemurafenib 300 nM (about IC25), added 48 h after transfection, for 48 h; comparison arm got DMSO vehicle only
Detection: 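Cell gain (DAPI nuclei at end minus before drug, mean of two replicates) and medium lactate by absorbance per cell, both as ratio to non-targeting siRNA, also grouped into fold-change classes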
Scale: cell gain with vemurafenib: higher = more cell gain than with non-targeting siRNA; lactate per cell with vemurafenib: higher = more lactate made per cell
Rule for the call: 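Enhancement is called by pairing each knock-down's vehicle-arm and drug-arm fold-change classes for viability or glycolysis; which class combinations qualify is not given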
Meaning of the calls: active = enhances vemurafenib effect; inactive = no enhancement seen

The opening 2 records, ahead of the listing:
gene knocked down | cell gain with vemurafenib | lactate per cell with vemurafenib | Outcome
KLHL3 (kelch like family member 3) | 0.63 | 0.77 | inactive
BIN2 (bridging integrator 2) | 0.94 | 1.07 | inactive

Results, from the first entry:
gene knocked down | cell gain with vemurafenib | lactate per cell with vemurafenib | Outcome
KLHL3 (kelch like family member 3) | 0.63 | 0.77 | inactive
BIN2 (bridging integrator 2) | 0.94 | 1.07 | inactive
PALLD (palladin, cytoskeletal associated protein) | 0.8 | 0.77 | inactive
B3GAT3 (beta-1,3-glucuronyltransferase 3) | 0.66 | 0.6 | inactive
SULT4A1 (sulfotransferase family 4A member 1) | 0.7 | 0.38 | inactive
OGDHL (oxoglutarate dehydrogenase L) | 0.44 | 1.8 | inactive
ATRN (attractin) | 0.54 | 0.56 | inactive
EEF1A2 (eukaryotic translation elongation factor 1 alpha 2) | 1.03 | 0.68 | inactive
LRMDA (leucine rich melanocyte differentiation associated) | 0.28 | 0.44 | active
IZUMO1R (IZUMO1 receptor, JUNO) | 0.83 | 0.44 | inactive
ENKD1 (enkurin domain containing 1) | 1.02 | 1.02 | inactive
GAGE7 (G antigen 7) | 1.1 | 0.54 | inactive
GRIK3 (glutamate ionotropic receptor kainate type subunit 3) | 0.75 | 0.69 | active
NID1 (nidogen 1) | 0.82 | 0.7 | inactive
SLC44A4 | 0.39 | 1.6 | inactive
ADAM21 (ADAM metallopeptidase domain 21) | 0.09 | 1.17 | inactive
EXOC7 (exocyst complex component 7) | 0.34 | 1.11 | inactive
NEU4 (neuraminidase 4) | 0.66 | 0.53 | inactive
LDLRAD4 (low density lipoprotein receptor class A domain containing 4) | 0.46 | 1.03 | inactive
LYAR (Ly1 antibody reactive) | 0.83 | 0.74 | inactive
SNTN (sentan, cilia apical structure protein) | 0.96 | 0.67 | inactive
PENK (proenkephalin) | -0.01 | 0.14 | active
TBX19 (T-box transcription factor 19) | 0.93 | 0.8 | inactive
STEAP4 (STEAP4 metalloreductase) | 0.74 | 0.66 | inactive
HERC5 (HECT and RLD domain containing E3 ubiquitin protein ligase 5) | 0.55 | 0.48 | inactive
DOCK4 (dedicator of cytokinesis 4) | 0.3 | 2.21 | inactive
EXOC1 (exocyst complex component 1) | 0.38 | 1.33 | inactive
SMAD5 (SMAD family member 5) | 0.72 | 0.78 | inactive
CYTIP (cytohesin 1 interacting protein) | 0.51 | 1.26 | inactive
EBPL (EBP like) | 0.81 | 0.74 | inactive
BLOC1S5 (biogenesis of lysosomal organelles complex 1 subunit 5) | 0.36 | 0.82 | inactive
CAV3 (caveolin 3) | 0.73 | 0.88 | inactive
SEPHS1 (selenophosphate synthetase 1) | 0.66 | 1.29 | inactive
SERPINI1 (serpin family I member 1) | -0.05 | 2 | inactive
NUB1 (negative regulator of ubiquitin like proteins 1) | 0.62 | 0.8 | inactive
SFXN3 (sideroflexin 3) | 0.03 | 0.2 | active
REXO4 (RNA exonuclease 4) | 0.64 | 0.26 | inactive
CCDC88A (coiled-coil and HOOK domain protein 88A) | 0.46 | 1.37 | inactive
PALMD (palmdelphin) | 0.73 | 0.64 | inactive
ATP2A1 | 0.55 | 0.52 | inactive
TPM2 (tropomyosin 2) | 0.74 | 0.14 | active
RHOH (ras homolog family member H) | 0.42 | 1.01 | inactive
TEDDM1 (transmembrane epididymal protein 1) | 0.44 | 1.17 | inactive
CHMP2B (charged multivesicular body protein 2B) | 0.34 | 1.64 | inactive
OR10C1 (olfactory receptor family 10 subfamily C member 1) | 0.43 | 1.23 | inactive
CGREF1 (cell growth regulator with EF-hand domain 1) | 0.33 | 1.2 | inactive
SERINC1 (serine incorporator 1) | 1.01 | 0.74 | inactive
EIF1 (eukaryotic translation initiation factor 1) | 0.8 | 0.96 | inactive
STARD3NL (STARD3 N-terminal like) | 1.04 | 0.84 | inactive
MDH1 (malate dehydrogenase 1) | 0.76 | 0.61 | inactive
NLRP3 (NLR family pyrin domain containing 3) | 0.62 | 1.73 | inactive
MAFB (MAF bZIP transcription factor B) | 0.95 | 1.05 | inactive
WDR53 (WD repeat domain 53) | 0.5 | 1.71 | inactive
NDUFAB1 (NADH:ubiquinone oxidoreductase subunit AB1) | 0.97 | 2 | inactive
PSMB1 (proteasome 20S subunit beta 1) | 0.01 | 1.46 | inactive
SEC24C (SEC24 homolog C, COPII component) | 0.84 | 0.45 | active
C8orf58 (chromosome 8 open reading frame 58) | 0.65 | 0.78 | inactive
RDM1 (RAD52 motif containing 1) | 0.68 | 0.73 | inactive
PCDHB14 (protocadherin beta 14) | 0.96 | 0.35 | active
KPNA4 (karyopherin subunit alpha 4) | 0.68 | 1.05 | inactive
GMPR2 (guanosine monophosphate reductase 2) | 0.4 | 1.65 | inactive
IL1A (interleukin 1 alpha) | 0.29 | 0.84 | inactive
MARCHF2 (membrane associated ring-CH-type finger 2) | 1.12 | 0.81 | inactive
KRT19 (keratin 19) | 0.48 | 0.82 | inactive
SPAST (spastin) | 0.16 | 1.25 | inactive
RNF31 (ring finger protein 31) | 1.03 | 0.68 | inactive
PRDX4 (peroxiredoxin 4) | 0.77 | 0.83 | inactive
WRAP53 (WD repeat containing antisense to TP53) | 0.76 | 0.99 | inactive
DEAF1 (DEAF1 transcription factor) | 0.51 | 1.36 | inactive
LSM14B (LSM family member 14B) | -0.07 | 1.19 | inactive
ABR (ABR activator of RhoGEF and GTPase) | 0.32 | 1.17 | inactive
KCNMB1 | 0.8 | 0.52 | inactive
CAMK1D (calcium/calmodulin dependent protein kinase ID) | 0.77 | 0.4 | inactive
ZNF501 (zinc finger protein 501) | 0.79 | 0.63 | inactive
KRT24 (keratin 24) | 0.86 | 0.66 | inactive
HMHB1 (histocompatibility minor HB-1) | 0.35 | 0.78 | inactive
DYNLT4 (dynein light chain Tctex-type 4) | 0.91 | 1.17 | inactive
LAYN (layilin) | 0.85 | 0.78 | inactive
RASSF1 (Ras association domain family member 1) | 0.95 | 0.62 | inactive
PIGT (phosphatidylinositol glycan anchor biosynthesis class T) | 0.22 | 0.28 | inactive
SPTBN5 (spectrin beta, non-erythrocytic 5) | 0.66 | 1.45 | inactive
C11orf65 (chromosome 11 open reading frame 65) | 0.2 | 1.12 | inactive
IMMT (inner membrane mitochondrial protein) | 0.96 | 0.18 | active
PRSS8 (serine protease 8) | 0.55 | 0.84 | inactive
